# US4891319A, “Protection of proteins and the like” (Quadrant Bioresources Limited, priority 1985, dated 1990)
# System: R-phycoerythrin
# Assay: Fluorescence of R-phycoerythrin after drying with or without trehalose
# Format: physicochemical, marine Rhodophyte
# Method: The phycobiliprotein R-phycoerythrin was purified from a marine Rhodophyte. This brilliantly fluorescent red protein was blotted onto nitrocellulose membrane or glass fibre filter paper in phosphate buffer with and without 10% w/v added trehalose and dried at room temperature.
# R-phycoerythrin at 5 mg/ml was dried at 37° on glass fibre filter paper (Whatman GF/C), cellulose filter paper (Whatman No. 1) or on nitrocellulose membrane (Schleicher & Schull 0.45μ pore size) in the presence of 5% trehalose in solution and in its absence. In the absence of trehalose the spots of dried R-phycoerythrin changed colour to a purplish red and lost >90% of their fluorescence intensity.
Molecule,"colour and fluorescence after drying (5% trehalose, dried at 37° on glass fibre, cellulose or nitrocellulose)","colour and fluorescence after drying (10% w/v trehalose, dried at room temperature on nitrocellulose or glass fibre)",retention of fluorescent properties on drying (dried completely in the presence of trehalose),"colour and fluorescence after drying (absence of trehalose, dried at room temperature)"
"OC[C@H]1O[C@H](O[C@H]2O[C@H](CO)[C@@H](O)[C@H](O)[C@H]2O)[C@H](O)[C@@H](O)[C@@H]1O [Trehalose, α-D-glucopyranosyl-α-D-glucopyranoside]",retained both colour and fluorescence,"retained its colour, and fluoresced just as brightly as the protein in solution",without loss of its fluorescent properties,–
R Phycoerythrin,–,–,–,turned purple and lost its ability to fluoresce orange/red
